Data from patent publication US5279543A, “Device for iontophoretic non-invasive sampling or delivery of substances” (priority 1992, dated 1994).

Protocol: (1) Leakage tests (without current) using dye and silicone rubber than skin; (2) leakage tests using dye and skin (without current); and (3) iontophoretic tests using the drug solutions and skin (with and without current). Procedures (1) and (2) were evaluated by visually inspecting the cell. […] The activity of the skin 13 and of the samples taken from the receptor chamber was determined post-experimentally. Each experiment lasts approximately 24 hours, ±2 hours, with samples collected hourly. Receptor fluid 17 was magnetically stirred (27), and the collection flow rate was 10 ml/hr.

CN1CC[C@]23c4c5ccc(O)c4O[C@H]2[C@@H](O)C=C[C@H]3[C@H]1C5.O=S(=O)(O)O [morphine sulfate, Morphine sulfate]
Amount of labelled drug in the buffered saline of chamber 16C: 1 µg
